Taken from: PubChem BioAssay AID743121 (NCATS, 2013)
This is one part, drawn at random, of about 26,000 reagents. Over the whole deposit, 167 (0.63%) were called active. 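Calls are per gene from RSA p-values that are not deposited; an individual active-marked siRNA can sensitise only weakly.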 Unmarked entries are inactive. Reagents against one gene are numbered here.

Assay: 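Partners whose loss is lethal together with topoisomerase I blockade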 (primary screen)
System: MDA-MB-231 cells, a human breast cancer line
Reagent: single siRNA against human genes, 20 nM siRNA (0.8 pmol per well)
Duration: 120 h (drug added 48 h after transfection, read 72 h later)
Challenge: camptothecin 20 nM (about EC30) for 72 h; vehicle 0.1% DMSO in parallel plates
Measurement: 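CellTiter-Glo ATP signal, scaled to control siRNA as percent viability; sensitisation given as log2 of untreated divided by camptothecin-treated viability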
Direction: log2 vehicle/camptothecin viability: higher = stronger sensitisation to camptothecin; viability with camptothecin and viability without drug: higher = more viable cells
Hit rule: 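Each gene scored by redundant siRNA activity (RSA) over its individual siRNA ratios; a gene is called active at p < 0.001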

gene symbol	reagent	log2 vehicle/camptothecin viability	viability with camptothecin (% of control)	viability without drug (% of control)
TUBA1A (tubulin alpha 1a)	1	-0.0597	100	96.2
TUBA1A (tubulin alpha 1a)	2	0.133	27.3	30
TUBA1A (tubulin alpha 1a)	3	-0.675	82	51.4
TUBA1A (tubulin alpha 1a)	4	-0.329	70.8	56.4
SSH2 (slingshot protein phosphatase 2)	1	0.193	68.6	78.5
SSH2 (slingshot protein phosphatase 2)	2	-0.56	93.9	63.7
SSH2 (slingshot protein phosphatase 2)	3	-0.105	89.1	82.9
SSH2 (slingshot protein phosphatase 2)	4	-0.0695	85.6	81.5
MS4A6A (membrane spanning 4-domains A6A)	1	-0.102	85.3	79.5
MS4A6A (membrane spanning 4-domains A6A)	2	0.392	68.2	89.5
MS4A6A (membrane spanning 4-domains A6A)	3	0.333	24.8	31.2
SENP6 (SUMO specific peptidase 6)	1	-0.26	58.4	48.7
SENP6 (SUMO specific peptidase 6)	2	-0.211	57.2	49.5
SENP6 (SUMO specific peptidase 6)	3	0.033	101	103
SENP6 (SUMO specific peptidase 6)	4	-0.332	77.7	61.7
ABCC3 (ATP binding cassette subfamily C member 3)	1	1.07	26.3	55.3
ABCC3 (ATP binding cassette subfamily C member 3)	2	0.0514	46	47.7
ABCC3 (ATP binding cassette subfamily C member 3)	3	-0.279	44.3	36.5
RASA1 (RAS p21 protein activator 1)	1	-0.256	90.8	76
RASA1 (RAS p21 protein activator 1)	2	-0.0635	71.1	68.1
RASA1 (RAS p21 protein activator 1)	3	-0.367	68	52.7
RASA1 (RAS p21 protein activator 1)	4	-0.00863	75.8	75.4
ARHGEF6 (Rac/Cdc42 guanine nucleotide exchange factor 6)	1	-0.0695	100	95.6
ARHGEF6 (Rac/Cdc42 guanine nucleotide exchange factor 6)	2	-0.505	104	73.4
ARHGEF6 (Rac/Cdc42 guanine nucleotide exchange factor 6)	3	-0.33	108	85.8
ARHGEF6 (Rac/Cdc42 guanine nucleotide exchange factor 6)	4	0.115	83.8	90.8
CXCL3 (C-X-C motif chemokine ligand 3)	1	-0.183	110	96.5
CXCL3 (C-X-C motif chemokine ligand 3)	2	-0.0845	97.9	92.3
CXCL3 (C-X-C motif chemokine ligand 3)	3	-0.0665	118	113
CXCL3 (C-X-C motif chemokine ligand 3)	4	-0.187	45.6	40
ARNT (aryl hydrocarbon receptor nuclear translocator)	1	0.133	35.7	39.1
ARNT (aryl hydrocarbon receptor nuclear translocator)	2	-0.421	35	26.1
ARNT (aryl hydrocarbon receptor nuclear translocator)	3	-0.461	94.8	68.9
ARNT (aryl hydrocarbon receptor nuclear translocator)	4	-0.109	125	116
UGT1A9 (UDP glucuronosyltransferase family 1 member A9)	1	0.0377	103	105
UGT1A9 (UDP glucuronosyltransferase family 1 member A9)	2	-0.0291	79.2	77.6
UGT1A9 (UDP glucuronosyltransferase family 1 member A9)	3	-0.0364	44.1	43
UGT1A9 (UDP glucuronosyltransferase family 1 member A9)	4	-0.138	84.8	77.1
RAD23B (RAD23 nucleotide excision repair protein B)	1	0.114	93.5	101
RAD23B (RAD23 nucleotide excision repair protein B)	2	-0.195	112	98.1
RAD23B (RAD23 nucleotide excision repair protein B)	3	-0.0819	73.7	69.7
HCK (HCK proto-oncogene, Src family tyrosine kinase)	1	0.221	39.3	45.9
HCK (HCK proto-oncogene, Src family tyrosine kinase)	2	0.00362	42.8	42.9
HCK (HCK proto-oncogene, Src family tyrosine kinase)	3	-0.0458	80.5	78
HCK (HCK proto-oncogene, Src family tyrosine kinase)	4	0.045	80.9	83.5
SERPINF1 (serpin family F member 1)	1	-0.133	92.7	84.6
SERPINF1 (serpin family F member 1)	2	0.242	82	97
SERPINF1 (serpin family F member 1)	3	-0.239	107	90.3
SERPINF1 (serpin family F member 1)	4	-0.543	79.5	54.6

Laid out differently: 7 of the entries above
| gene symbol | reagent | log2 vehicle/camptothecin viability | viability with camptothecin (% of control) | viability without drug (% of control) |
| --- | --- | --- | --- | --- |
| ABCC3 (ATP binding cassette subfamily C member 3) | 1 | 1.07 | 26.3 | 55.3 |
| ABCC3 (ATP binding cassette subfamily C member 3) | 2 | 0.0514 | 46 | 47.7 |
| ABCC3 (ATP binding cassette subfamily C member 3) | 3 | -0.279 | 44.3 | 36.5 |
| RASA1 (RAS p21 protein activator 1) | 1 | -0.256 | 90.8 | 76 |
| RASA1 (RAS p21 protein activator 1) | 2 | -0.0635 | 71.1 | 68.1 |
| RASA1 (RAS p21 protein activator 1) | 3 | -0.367 | 68 | 52.7 |
| RASA1 (RAS p21 protein activator 1) | 4 | -0.00863 | 75.8 | 75.4 |
